Assay results taken from doi:10.1101/2022.05.24.493321.

By UniProt entry, the sequences of proteins in these tests, tags left out.
UniProt P61244, whole entry: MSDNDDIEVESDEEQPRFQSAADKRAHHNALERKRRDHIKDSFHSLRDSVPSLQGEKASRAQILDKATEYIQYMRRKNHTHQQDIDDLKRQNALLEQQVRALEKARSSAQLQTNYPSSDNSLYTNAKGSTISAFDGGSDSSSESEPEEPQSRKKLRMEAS

What was measured:
MAX (Homo sapiens) [1] = biological target: MAX (Homo sapiens) (UniProt P61244); experiment: k-MITOMI; conditions: dissociation measured; protein translated in vitro
Pho4 (S. cerevisiae) [2] = biological target: T1, Pho4 (S. cerevisiae) (UniProt P07270); experiment: k-MITOMI; conditions: dissociation measured; protein translated in vitro
T1 sequence (looked up, limits assumed): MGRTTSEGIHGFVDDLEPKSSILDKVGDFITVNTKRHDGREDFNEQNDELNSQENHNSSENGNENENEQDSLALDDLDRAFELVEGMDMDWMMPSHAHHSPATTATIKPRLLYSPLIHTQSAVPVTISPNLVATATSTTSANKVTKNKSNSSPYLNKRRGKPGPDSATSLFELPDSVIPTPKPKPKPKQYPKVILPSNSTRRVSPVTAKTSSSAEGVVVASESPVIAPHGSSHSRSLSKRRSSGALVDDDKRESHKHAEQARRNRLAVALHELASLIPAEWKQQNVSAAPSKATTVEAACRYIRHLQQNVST

MAX (Homo sapiens) [3] = biological target: MAX (Homo sapiens) (UniProt P61244); experiment: MITOMI; conditions: protein translated in vitro
Pho4 (S. cerevisiae) [4] = biological target: T1, Pho4 (S. cerevisiae); experiment: MITOMI; conditions: protein translated in vitro
[5] = STR flanks, Kd and koff measured

CGCACTGACTGACTGACTGACTGACTGACTGACTGACTGACTGACTGACTGACTGACTGACTGGTCACGTGACCAGTCAGTCAGTCAGTCAGTCAGTCAGTCAGTCAGTCAGTCAGTCAGTCAGTCAGTCAGTCGTCCGGCGGTATGAC (double strand) [ACTG/AGTC 60bp]
binding result (MAX (Homo sapiens) [1]): binds
binding result (Pho4 (S. cerevisiae) [2]): binds

CGCATATATATATAGAGTCACGCGACTCTCGCGCGCGCGGTCCGGCGGTATGAC (double strand) [Mutated motif + AT/CG repeat 1]
binding result (MAX (Homo sapiens) [3]; weak E-box): binds more weakly
binding result (Pho4 (S. cerevisiae) [4]; weak E-box): binds more weakly

CGCATATATATATAGAGTCACGTGACTCTCGCGCGCGCGGTCCGGCGGTATGAC (double strand) [Motif + AT/CG repeat 1]
binding result (MAX (Homo sapiens) [3]; [5]): binds
binding result (Pho4 (S. cerevisiae) [4]; [5]): binds

CGCATATATATATATATATATCGCGCGCGCGCGCGCGCGGTCCGGCGGTATGAC (double strand) [No motif + AT/CG repeat 3]
binding result (MAX (Homo sapiens) [3]; no motif, Kd used in model fit): binds more weakly
binding result (Pho4 (S. cerevisiae) [4]; no motif, Kd used in model fit): binds more weakly

CGCATCGATCGATCGATCGATCGATCGATCGATCGATCGATCGATCGATCGATCGATCGATCGGTCACGTGACCGATCGATCGATCGATCGATCGATCGATCGATCGATCGATCGATCGATCGATCGATCGATCGTCCGGCGGTATGAC (double strand) [ATCG/ATCG 60bp]
binding result (MAX (Homo sapiens) [3]; deleterious vs random flanks): binds more weakly
binding result (Pho4 (S. cerevisiae) [2]): binds

CGCCACACACACACATGTCACGTGACATGTGTGTGTGTGGTCCGGCGGTATGAC (double strand) [Motif + AC/GT repeat 1]
binding result (MAX (Homo sapiens) [3]; [5]): binds
binding result (Pho4 (S. cerevisiae) [4]; [5]): binds

CGCCCCAGCACTGCCAAGCCGACGTTAAAACGGGTTGCTTCATCAATCGAATGTCAATACATAGTCACGTGACACGCGGTAGGCTCGCTATCGGCACTTGCGCTTGAGTGCATCGAATAGTTCGGTTTATGAGCGTCCGGCGGTATGAC (double strand) [Random 1 (Library 2)]
binding result (MAX (Homo sapiens) [3]; random-flank reference): binds
binding result (Pho4 (S. cerevisiae) [4]; random-flank reference): binds

CGCCCCAGCACTGCCAAGGGAGAGAGAGAGAGAGAGAGAGAGAGAGAGAGAGAGAGAGAGAGAGTCACGTGACTCTCTCTCTCTCTCTCTCTCTCTCTCTCTCTCTCTCTCTCTCTCTAGTTCGGTTTATGAGCGTCCGGCGGTATGAC (double strand) [AG/CT 45bp]
binding result (MAX (Homo sapiens) [3]; disfavored repeat, effect saturates after ~40 nt): binds more weakly

CGCGAGAGAGAGAGAGAGAGAGAGAGAGAGAGAGAGAGAGAGAGAGAGAGAGAGAGAGAGAGAGTCACGTGACTCTCTCTCTCTCTCTCTCTCTCTCTCTCTCTCTCTCTCTCTCTCTCTCTCTCTCTCTCTCCGTCCGGCGGTATGAC (double strand) [AG/CT 60bp]
binding result (MAX (Homo sapiens) [3]; deleterious vs random flanks): binds more weakly
binding result (Pho4 (S. cerevisiae) [2]): binds

CGCGTACGTACGTACGTACGTACGTACGTACGTACGTACGTACGTACGTACGTACGTACGTACGTCACGTGACGTACGTACGTACGTACGTACGTACGTACGTACGTACGTACGTACGTACGTACGTACGTACCGTCCGGCGGTATGAC (double strand) [ACGT/ACGT 60bp]
binding result (MAX (Homo sapiens) [1]): binds
binding result (Pho4 (S. cerevisiae) [2]): binds

Construct, isoform or probe ends are uncertain for at least one entry. For some of these results: A weaker result is weaker than the reference pair of the same experiment. At least one verdict was read from the data and is not stated in words by the source. For some of these results: Protein sequences can lack the tags named with them.
